Assay results reported in article PMC10580588.
Results are given in words; binding and its absence hold for the method and conditions named. In cells and extracts the contact can be indirect. Some entries that bind do so weakly or less than the wild type.

Sequences of proteins named here, by UniProt entry; tags and fusion partners are left off.
UniProt Q7Z333: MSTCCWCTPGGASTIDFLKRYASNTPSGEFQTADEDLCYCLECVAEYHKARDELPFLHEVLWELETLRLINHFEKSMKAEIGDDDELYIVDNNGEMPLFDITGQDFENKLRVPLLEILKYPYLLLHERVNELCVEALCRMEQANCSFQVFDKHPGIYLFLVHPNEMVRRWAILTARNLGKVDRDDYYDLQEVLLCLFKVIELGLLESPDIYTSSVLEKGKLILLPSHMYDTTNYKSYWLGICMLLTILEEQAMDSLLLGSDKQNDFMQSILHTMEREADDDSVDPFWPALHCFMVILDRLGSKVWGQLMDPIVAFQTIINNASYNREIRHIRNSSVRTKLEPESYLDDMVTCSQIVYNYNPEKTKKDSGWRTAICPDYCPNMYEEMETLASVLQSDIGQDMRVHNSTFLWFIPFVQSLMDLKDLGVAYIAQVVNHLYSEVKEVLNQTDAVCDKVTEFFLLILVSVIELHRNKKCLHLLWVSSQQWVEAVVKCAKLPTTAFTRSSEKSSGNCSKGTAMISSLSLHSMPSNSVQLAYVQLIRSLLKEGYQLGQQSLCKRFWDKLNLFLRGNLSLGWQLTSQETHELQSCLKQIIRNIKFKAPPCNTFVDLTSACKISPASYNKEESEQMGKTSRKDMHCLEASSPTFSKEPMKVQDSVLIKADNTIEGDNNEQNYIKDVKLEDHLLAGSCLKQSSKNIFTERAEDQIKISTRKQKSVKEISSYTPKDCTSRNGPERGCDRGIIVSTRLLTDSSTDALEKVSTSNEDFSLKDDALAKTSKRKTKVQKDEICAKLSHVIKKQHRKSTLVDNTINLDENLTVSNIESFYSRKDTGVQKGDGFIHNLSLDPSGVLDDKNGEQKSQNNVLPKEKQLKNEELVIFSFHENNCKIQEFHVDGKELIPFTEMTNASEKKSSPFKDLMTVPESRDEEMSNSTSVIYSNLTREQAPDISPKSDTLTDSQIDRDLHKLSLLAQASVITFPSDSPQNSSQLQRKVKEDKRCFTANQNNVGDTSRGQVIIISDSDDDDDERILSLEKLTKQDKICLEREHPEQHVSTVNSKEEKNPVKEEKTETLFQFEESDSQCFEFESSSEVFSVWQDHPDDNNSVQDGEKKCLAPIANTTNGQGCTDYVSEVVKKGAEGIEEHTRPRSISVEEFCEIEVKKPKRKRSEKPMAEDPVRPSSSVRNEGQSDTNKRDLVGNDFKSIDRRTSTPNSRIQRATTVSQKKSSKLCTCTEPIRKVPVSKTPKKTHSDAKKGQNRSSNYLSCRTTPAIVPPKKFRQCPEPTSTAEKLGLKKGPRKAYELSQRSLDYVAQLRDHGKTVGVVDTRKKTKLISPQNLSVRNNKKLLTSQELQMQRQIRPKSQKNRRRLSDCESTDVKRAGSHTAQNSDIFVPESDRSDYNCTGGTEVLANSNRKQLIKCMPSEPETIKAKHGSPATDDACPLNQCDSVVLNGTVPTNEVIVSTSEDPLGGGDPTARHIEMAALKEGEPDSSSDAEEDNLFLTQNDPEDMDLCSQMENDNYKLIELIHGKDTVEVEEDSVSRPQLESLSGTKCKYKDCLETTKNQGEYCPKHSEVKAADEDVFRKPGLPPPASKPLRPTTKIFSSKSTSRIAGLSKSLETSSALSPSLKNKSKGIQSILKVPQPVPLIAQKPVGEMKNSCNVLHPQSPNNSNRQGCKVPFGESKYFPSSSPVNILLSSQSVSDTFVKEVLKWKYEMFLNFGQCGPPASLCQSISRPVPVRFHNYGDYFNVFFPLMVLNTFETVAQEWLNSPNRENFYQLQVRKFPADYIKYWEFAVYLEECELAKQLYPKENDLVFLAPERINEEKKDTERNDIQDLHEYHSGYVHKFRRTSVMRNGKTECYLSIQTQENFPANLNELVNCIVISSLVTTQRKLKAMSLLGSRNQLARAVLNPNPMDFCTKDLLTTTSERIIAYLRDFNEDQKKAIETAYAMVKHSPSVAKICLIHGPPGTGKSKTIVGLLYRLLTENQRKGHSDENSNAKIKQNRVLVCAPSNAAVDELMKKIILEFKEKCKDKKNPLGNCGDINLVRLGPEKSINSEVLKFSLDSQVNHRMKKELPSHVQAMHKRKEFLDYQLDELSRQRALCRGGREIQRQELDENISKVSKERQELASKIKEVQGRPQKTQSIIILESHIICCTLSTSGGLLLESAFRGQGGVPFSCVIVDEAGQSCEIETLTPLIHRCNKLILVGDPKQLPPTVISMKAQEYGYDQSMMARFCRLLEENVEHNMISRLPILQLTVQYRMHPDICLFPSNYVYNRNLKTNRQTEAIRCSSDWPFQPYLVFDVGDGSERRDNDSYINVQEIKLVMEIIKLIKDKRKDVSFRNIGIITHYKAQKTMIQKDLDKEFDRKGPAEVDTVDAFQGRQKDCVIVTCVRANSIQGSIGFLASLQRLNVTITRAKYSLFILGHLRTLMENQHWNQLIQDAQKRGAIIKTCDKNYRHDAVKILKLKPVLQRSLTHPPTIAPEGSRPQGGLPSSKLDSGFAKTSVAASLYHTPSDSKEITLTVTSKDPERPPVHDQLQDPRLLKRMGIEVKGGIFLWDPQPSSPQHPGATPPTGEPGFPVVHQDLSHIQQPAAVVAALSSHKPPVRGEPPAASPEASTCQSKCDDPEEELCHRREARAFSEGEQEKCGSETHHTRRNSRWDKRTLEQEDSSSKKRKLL
UniProt Q06265: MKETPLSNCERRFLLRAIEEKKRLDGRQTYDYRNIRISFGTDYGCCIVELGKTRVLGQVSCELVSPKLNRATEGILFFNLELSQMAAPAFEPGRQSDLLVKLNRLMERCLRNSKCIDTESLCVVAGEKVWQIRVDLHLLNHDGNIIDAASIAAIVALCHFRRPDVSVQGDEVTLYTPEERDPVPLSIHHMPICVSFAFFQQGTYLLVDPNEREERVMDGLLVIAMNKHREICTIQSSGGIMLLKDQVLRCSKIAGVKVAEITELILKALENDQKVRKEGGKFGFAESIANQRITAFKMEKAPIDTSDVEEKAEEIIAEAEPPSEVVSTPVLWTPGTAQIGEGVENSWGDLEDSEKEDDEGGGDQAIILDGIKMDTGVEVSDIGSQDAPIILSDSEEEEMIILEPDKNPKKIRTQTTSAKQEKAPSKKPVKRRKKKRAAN

Target: FLAG-tagged full-length senataxin (SETX) (human) (UniProt Q7Z333)
Test: co-IP; SETX immunoprecipitated, the IP'd material treated with or without RNase A; bands measured by densitometry; IgG only IP as negative control

Exosc9 (from UniProt Q06265 1-439)
binding: binds
